Test results reported in US6599713B1, “Method for quantitating leukocyte count in whole blood sample” (priority 1999, dated 2003).

Test system: white blood cells contained in a whole blood sample
Test: MPO-releasing effects of various surfactants on whole blood, ELISA (Examples 3 to 5)
Type: cell-based, human
Settings: 60 minutes on ice, mean ± SD
Procedure: 10 ml of healthy human whole blood was collected using a 28 G winged intravenous injection needle (manufactured and sold by Terumo Corporation, Japan), and immediately mixed with 10 mg of EDTA-2K (manufactured and sold by Dojin Laboratories, Japan), and the resultant EDTA-containing whole blood sample was subjected to the below-described various measurements within 1 hour from the blood collection.
500 μl of the blood was put in a 2-ml Eppendorf tube, and 500 μl of a 1% (w/v) aqueous surfactant solution was added to the tube, and the resultant mixture was stirred for 2 seconds by a Vortex mixer. Subsequently, the mixture was allowed to stand for 60 minutes on ice to thereby lyze the white blood cells. After the lysis of the white blood cells, 100 μl of the mixture was taken out and added to 900 μl of a PBS solution containing dissolved therein 1% BSA (trade name: “Sigma fraction V”, manufactured and sold under the brand of SIGMA™, U.S.A.). The resultant mixture was stirred by a Vortex mixer, and then 10 μl of the mixture was taken out and diluted 2,000-fold with 1% BSA/PBS solution. The resultant diluted mixture was subjected to a measurement by ELISA.
The outline of the ELISA is as follows. A 5 μg/ml PBS solution of an anti-MPO antibody was put into the wells of a Nunc Immuno Plate (manufactured and sold by Nalge Nunc International, Denmark) in an amount of 100 μl per well. The solution in each well was sealed and subjected to a reaction for 18 hours at 4° C. thereby immobilizing the primary antibody. The wells were washed with a washing solution (0.05% Tween™ 20/PBS) and then subjected to blocking for 1 hour at room temperature by using 200 μl of a blocking solution (1% BSA/PBS), and then washed twice with the washing solution. […] The wells were washed 5 times with a washing solution, and 100 μl of a just-prepared TMB solution (manufactured and sold by Kirkegaad & Perry Laboratories, U.S.A.) was added thereto to effect a color reaction. 2 Minutes after the start of the color reaction, 100 μl of a 1 N sulfuric acid solution (manufactured and sold by Nacalai Tesque, Inc., Japan) was added to the wells to thereby terminate the reaction. Then, the absorbance at 450 nm was measured by means of a plate reader (manufactured and sold by Bio-Rad Laboratories, U.S.A.).
With respect to the measurement of the MPO concentration of the sample, MPO (manufactured and sold by Elastin Products Co., INC., U.S.A.) was added to the sample so that the final concentration of the added MPO became 5 ng/ml or 10 ng/ml, and the resultant mixture was measured with respect to the MPO concentration. From the obtained value of MPO concentration, a calibration curve for each sample was obtained. […]

[1] = Example 4 (Table 4): 500 μl blood + 500 μl 1% (w/v) surfactant solution
[2] = Example 5 (Table 5): 500 μl blood + 500 μl 1% (w/v) surfactant solution

| Compound | MPO concentration of whole blood [1] [µg/mL] | MPO concentration of whole blood [2] [µg/mL] |
| --- | --- | --- |
| CCCCCCCCCCCCCCCC[n+]1ccccc1.O.[Br-] [HPB, Hexadecylpyridinium Bromide Monohydrate] | 10.96 ± 0.46 | 9.07 ± 1.14 |
| CCCCCCCCCCCCCCCC[n+]1ccccc1.O.[Cl-] [HPC, Hexadecylpyridinium Chloride Monohydrate] | 12.05 ± 1.18 | 10.60 ± 1.44 |
